The record followed here is PubChem BioAssay AID1347426 (Functional Genomics Laboratory (NCATS/FGL), 2020).

The whole screen tested about 31,000 sequences, of which about 1,400 (4.5%) were called active.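 How the source made its calls: active means median seed-adjusted z-score above 1 or below -1; inactive means the rest.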 Some of the results follow.

The nature of this experiment: Novel Modifiers of Survival Motor Neuron (SMN) Protein: Gene Identification via Genome-wide siRNA Screen.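 Further: luminescence tracks full-length SMN protein made from the SMN2 reporter.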 The note with it: HEK293T SMN2-luciferase reporter, siRNA knockdown, 72 h; actives lie on both sides. The essentials: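 siRNA screen, 10418 genes ×3 siRNAs; 1 pmol/well, lipid reverse transfection into HEK293T SMN2-luc reporter line. 72 h, 37 °C, 5% CO2; ONE-Glo readout. Data: neg-ctrl normalized, log10, MAD; hit = MAD >1.0 or < -1.0.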
As to CGGCAUCCGAGUACAUCUATT against THAP7, the median seed-adjusted z-score was inactive: -0.0317.

Turning to UCGCUUAUCUCACCCUAUATT against IPO13, the median seed-adjusted z-score is inactive: 0.612.

CCACCAUCCUACAAGCCUUTT against CYP2S1: the median seed-adjusted z-score was inactive: -0.196.

Turning to GAGCGUACCAAGGAUCUAATT against HDLBP, the median seed-adjusted z-score is active: -1.18.

CACCAAAUAUAAUAGCCGATT against ARFGAP2: the median seed-adjusted z-score is inactive: 0.0672.

For the sequence CAUUGCAUAUUGCAGCGUATT against TNNI3K, the median seed-adjusted z-score is inactive: -0.178.

With GGACAACAACUGAAAUGUATT against ZIM3, the median seed-adjusted z-score is inactive: -0.02.

As to CAACCAGACAUAUAGAUCATT against SETDB1, the median seed-adjusted z-score is inactive: 0.0517.

In the case of GGAAGAUUGCUCAGAAUGATT against ACSS2, the median seed-adjusted z-score was inactive: 0.

Turning to CAGAAAUCAGGAAACAUAATT against ZNF786, the median seed-adjusted z-score was inactive: -0.518.

With GGAUCUUUUUAAACCUAUUTT against PIK3C2A, the median seed-adjusted z-score is inactive: 0.0177.

Take CCUCCUCUCAGUCUACUCATT against CLTB: the median seed-adjusted z-score is inactive: 0.319.

For the sequence GGAUAUGCUUGUACUAGUATT against DDX3Y, the median seed-adjusted z-score was inactive: -0.149.

On to ACAUUGUGGAGGGAAUUUATT against GUCA1B, for which the median seed-adjusted z-score is inactive: 0.

As for CCAUAGACAAUACUACCAATT against GPR112, the median seed-adjusted z-score was inactive: 0.

For the sequence GCACUGAUGACAACAACUATT against HTR1F, the median seed-adjusted z-score was inactive: -0.127.

For the sequence CAGUGGUCCAAGUACAAAUTT against PPIH, the median seed-adjusted z-score was inactive: -0.174.

GCAGUAUGCAGAUUGUUCATT against FGL1: the median seed-adjusted z-score is inactive: -0.259.

GGAUGACAGUCCAUACUGUTT against FHL5: the median seed-adjusted z-score was inactive: 0.0859.

As for GCAGCAAAGAUCUACCGAATT against CS, the median seed-adjusted z-score is inactive: -0.419.

Regarding GACUCUUUUCUACCUCGAATT against MYO1A, the median seed-adjusted z-score was inactive: -0.0501.

As to GGCCUACAGCUGGAAGGAATT against CHRM1, the median seed-adjusted z-score was active: 1.1.

Take GAAGAGCAUCGGAACCAGATT against STK10: the median seed-adjusted z-score is inactive: 0.0138.

In the case of UGACGGUCAUCUAUACCUUTT against OPN4, the median seed-adjusted z-score is inactive: 0.167.

In the case of GGCAUAGCUUUCCUCUAUATT against ERCC6L, the median seed-adjusted z-score is inactive: -0.0229.

Turning to AGAUGUAUGUUCACACCAATT against IRX4, the median seed-adjusted z-score was inactive: 0.0613.

With CGUGCACAGAUAUUACGCATT against FIGNL1, the median seed-adjusted z-score is inactive: -0.408.

For the sequence GAUGAUUACCAGGAACGAATT against CAPRIN1, the median seed-adjusted z-score was active: 1.36.

For CAGUUCAAGUGACAGCGAATT against AFF1, the median seed-adjusted z-score was inactive: -0.0394.

On to CGAUGAACGAGUACAUUGATT against GRIA2, for which the median seed-adjusted z-score was active: -1.02.

As to CCAUGGAAAUCCGCACUUUTT against MAN2B1, the median seed-adjusted z-score was inactive: -0.246.

Turning to GGACUUUGAGAAAAGCCGATT against HOOK2, the median seed-adjusted z-score was inactive: 0.0914.

With CUAGAACUGUGAAGCAUAUTT against MMP1, the median seed-adjusted z-score is inactive: 0.205.

GACCGAAAAUGUAUUAGAATT against USP45: the median seed-adjusted z-score is inactive: -0.203.

For the sequence CAUCAACGGAGGCUAUGAATT against ATP13A5, the median seed-adjusted z-score was inactive: 0.241.

CCGGAAAUCUGAACGGGAATT against ACACA: the median seed-adjusted z-score was inactive: 0.00665.

Turning to UCUCCUCUGCAUGCACUUATT against PAFAH1B3, the median seed-adjusted z-score was inactive: -0.381.

For the sequence CCACAAAAAGGGCAUGAUUTT against FPR2, the median seed-adjusted z-score was inactive: -0.166.

Turning to GUUUCAGCGUGAUUCCAAATT against MTMR14, the median seed-adjusted z-score was inactive: 0.131.

For the sequence UGCCCGCUGUAGAUGAGAATT against APOC2, the median seed-adjusted z-score was inactive: -0.0599.

On to GCCUGUCAUCAUUGGUGUATT against RNF121, for which the median seed-adjusted z-score was inactive: -0.53.

For the sequence GAUUGCGACUGGACUCAAATT against PXDN, the median seed-adjusted z-score was inactive: 0.771.

On to CUCUUGCAGAACAACAGAATT against ALG1, for which the median seed-adjusted z-score was inactive: 0.

For GAUCAGAAUUGAGGUCUUUTT against CASP8, the median seed-adjusted z-score was inactive: 0.413.

As for CAUCCUGUCAGUUUCGAAATT against TRAF5, the median seed-adjusted z-score is inactive: 0.598.

Consider UGCUGACCUCGUUACCUUUTT against UCP3, for which the median seed-adjusted z-score was active: 1.23.

Take GGUAAUGCUUUAUUCCAAATT against ZNF677: the median seed-adjusted z-score is inactive: -0.441.

Turning to GCUACUACCGAAUGGAAAATT against NPHS2, the median seed-adjusted z-score was inactive: -0.857.

Regarding GGAUGUUCCAAAUCACGGATT against MBTD1, the median seed-adjusted z-score is inactive: 0.0649.

For CGUUGUCACUUGCAAUGCUTT against ECHDC3, the median seed-adjusted z-score was inactive: 0.378.

CCUUGUUAUUGAGAAUGAATT against LPA: the median seed-adjusted z-score is inactive: -0.321.

Take GAGUAUCUUUUCUUGCUUATT against EFHA1: the median seed-adjusted z-score was inactive: 0.0629.

Consider CUGUUGGUAUUGGACUAUATT against EDNRB, for which the median seed-adjusted z-score was inactive: 0.119.

For CAACAGUACUUACCGAUGUTT against ALDH3A2, the median seed-adjusted z-score was inactive: -0.0751.

CAACAGUCAUCAACCACUATT against INHBA: the median seed-adjusted z-score is inactive: 0.361.

Take CCAGGACUAUUUCCGCAAATT against CACNA1F: the median seed-adjusted z-score was inactive: 0.22.

In the case of CCCAAAUACUGUUUCCCAATT against ACTR1B, the median seed-adjusted z-score was inactive: -0.18.

As for AAUUCUACGAGGAAACGAATT against ASMTL, the median seed-adjusted z-score is inactive: -0.0375.

For the sequence GCUCAUCGAUGAGUACCAUTT against TUBG1, the median seed-adjusted z-score was inactive: 0.618.

Consider CCGUGAUUCACUUAGAUCATT against PCM1, for which the median seed-adjusted z-score is inactive: -0.00218.

In the case of CAUAAGAACCUGUUAGCUATT against RFWD2, the median seed-adjusted z-score was inactive: 0.662.

Regarding CCACUUUAAUAAACGUGCUTT against TIMM10, the median seed-adjusted z-score was inactive: 0.0738.

As to CCAACAAGGUAGACCCAUUTT against PSMC5, the median seed-adjusted z-score is active: -1.06.

On to GCAAUGCGUUCUUUCUAAATT against SIGLEC11, for which the median seed-adjusted z-score was inactive: -0.395.

As for GUCUUGACCUUGAACGCAATT against VIM, the median seed-adjusted z-score was inactive: 0.431.

Regarding GCUGGUUUCUAGCCUGAGATT against PEX12, the median seed-adjusted z-score was inactive: -0.129.

As to GCACCUGGCAAAGAUCUAUTT against GNB2, the median seed-adjusted z-score was inactive: 0.561.

On to CAUGGAACCUACUACCAAATT against SELPLG, for which the median seed-adjusted z-score was inactive: 0.0378.

For CACACUUUUUGAACAAUAATT against ABTB2, the median seed-adjusted z-score is inactive: 0.432.

Turning to GACUAUAGGCACAACUACATT against ASGR2, the median seed-adjusted z-score is inactive: 0.0772.

For the sequence GAAUGUGGAAGGCAACCUATT against LAMC3, the median seed-adjusted z-score is inactive: 0.394.

For CCAAUGCCGUUUCCAUAGATT against ADAM12, the median seed-adjusted z-score was inactive: -0.343.

For the sequence GGAUUGUUCCUGAAACAUUTT against DHTKD1, the median seed-adjusted z-score is inactive: 0.591.

As for GUAAAAACCUAAAAGUCAATT against AVPR1B, the median seed-adjusted z-score is inactive: -0.423.

For the sequence GAAGACAGGAAUGACCUAATT against VSX1, the median seed-adjusted z-score was inactive: -0.91.

Regarding GGGUUAUAGGAUUACAGAATT against TRIM22, the median seed-adjusted z-score is inactive: 0.363.

Regarding CCUCUACAGCAUUUUCUUATT against DIO3, the median seed-adjusted z-score was inactive: 0.0911.

GGAAGACGAUUGGAUCAAUTT against EMR4: the median seed-adjusted z-score was inactive: -0.475.

Consider GCUCCUCAAAGGAUAUGAATT against CAB39L, for which the median seed-adjusted z-score was inactive: 0.

On to CUGCAGUUCUUAAUACGAATT against PSMD1, for which the median seed-adjusted z-score was active: -1.61.

With GAAGGGCUGUUGAAUUGUATT against HSD17B6, the median seed-adjusted z-score is inactive: 0.573.

With CAAGAGCAGUUUAAUAGCATT against BAT3, the median seed-adjusted z-score is inactive: 0.567.

With GGACCUACAUGCUUCUCAATT against PRPS1L1, the median seed-adjusted z-score was inactive: 0.

For the sequence GGAGAAUUCUGUAUGGUUUTT against OBFC2B, the median seed-adjusted z-score was inactive: -0.061.

Regarding GCUAUGAUGACAACUGGUATT against PVRL2, the median seed-adjusted z-score was inactive: -0.367.

For the sequence GGAGAUCGUUCUGCACAGATT against PAEP, the median seed-adjusted z-score is inactive: -0.0632.

Consider CCAGAAAUCCUGAUGGGCATT against NLK, for which the median seed-adjusted z-score was inactive: 0.256.

For the sequence GGAUUUCAAGGUUGGGAGATT against FST, the median seed-adjusted z-score is inactive: 0.357.

For GGACUAGUAAUAAAGAGGATT against STAU1, the median seed-adjusted z-score is inactive: -0.143.

With GUGAUAAAGUGAUAAGAUUTT against CPA6, the median seed-adjusted z-score was inactive: 0.343.

On to AGAACAGCUUCGUCAUGGATT against SUV39H1, for which the median seed-adjusted z-score was inactive: -0.0775.

GGACUAUCUAGUCAACAGATT against ENPEP: the median seed-adjusted z-score is inactive: 0.666.

Turning to CCAUCUAGAUCUUCGUGGATT against SLITRK6, the median seed-adjusted z-score was inactive: -0.136.

For GACAGAAUGUUUGAGACAATT against GOSR1, the median seed-adjusted z-score was inactive: -0.252.

As to GCAAAGUCUUUCACCUCAATT against LHX5, the median seed-adjusted z-score is inactive: -0.414.

Take CGUGGUUGCAGAUACCUCATT against SPON2: the median seed-adjusted z-score was inactive: 0.

Regarding CAAAAUCCUACGAAAUUCATT against PCDHA1, the median seed-adjusted z-score is inactive: -0.013.

For the sequence CCAGCACUAUGAUGCCAAATT against ANG, the median seed-adjusted z-score is inactive: -0.481.

As to GGAAUUCCUGGAUAGAUUATT against TTC5, the median seed-adjusted z-score is inactive: -0.296.

As to GGACAAUGAUGAGCGCCUCTT against TPSAB1, the median seed-adjusted z-score was inactive: 0.197.

Regarding ACAUGCUCACCUUCACUUUTT against SEMA4C, the median seed-adjusted z-score is inactive: -0.334.

For AGACCCAGCUAGAUUCUGATT against GPR152, the median seed-adjusted z-score was inactive: -0.9.

On to GGACGUGACUUACAUAGUUTT against PRLR, for which the median seed-adjusted z-score was inactive: 0.394.

Consider GCAGAAAGGUGGUUAUAAUTT against ZNF718, for which the median seed-adjusted z-score is inactive: 0.0564.

As for GGCUAUGGGUGUGGAAGAATT against SLC22A8, the median seed-adjusted z-score was inactive: 0.175.

Take CCAGCAAUGCAUCCGAGUATT against TCEB3: the median seed-adjusted z-score is inactive: 0.232.

For GAACCUCCGUGAUCGAUUUTT against PIP4K2C, the median seed-adjusted z-score was inactive: 0.27.

For CAUGAUCUCCGGCUACCUATT against SLCO2B1, the median seed-adjusted z-score is inactive: 0.289.
